PubChem BioAssay AID1508597, Cure First, 2020

- Screen: 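Knock-downs altering ovarian cancer cell survival with or without PARP inhibitor rucaparib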 (primary screen)
- Cell system: human ovarian carcinoma lines grown from tumours: OCI-P5x (papillary serous) and OCI-C5x (clear cell)
- Reagent: siRNA pool against human genes, 1.25 pmol siRNA per well
- Time to read-out: 72 h or 96 h, depending on the cell culture
- Conditions: rucaparib 20 µM (about IC30) or vehicle, present until read-out
- Rucaparib or vehicle: Rucaparib
- Cell line: OCI-C5x (clear cell)
- Measured: 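Luminescent ATP-based viability assay read 72 or 96 h after transfection, depending on culture, given as normalised percent viability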
- Scale: viability, normalised: higher = more viable cells remaining
- Call rule: 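a well counts as a hit if its normalised viability is under 80 percent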
- Calls: active = viability under 80%; inactive = viability 80% or more
Shown is a random part of the about 2,100 reagents, under one of the conditions tested. 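Calls flag viability under 80% in either arm, not effects specific to rucaparib; the reference for percent is not stated.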 Some reagents were tested in more than one well and are listed for each. The record does not give: the 100% reference.

The first 2 entries, ahead of the listing:
Target gene | technical replicate | viability, normalised (%) | outcome
CDC14B (GeneID 8555) | 1 | 45.1 | active
CDC14B (GeneID 8555) | 2 | 45 | active

The list itself, from the first entry:
Target gene | technical replicate | viability, normalised (%) | outcome
CDC14B (GeneID 8555) | 1 | 45.1 | active
CDC14B (GeneID 8555) | 2 | 45 | active
CDC14B (GeneID 8555) | 3 | 41 | active
CHEK2 (GeneID 11200) | 1 | 65.2 | active
CHEK2 (GeneID 11200) | 1 | 62.6 | active
CHEK2 (GeneID 11200) | 2 | 69.6 | active
CHEK2 (GeneID 11200) | 2 | 45.7 | active
CHEK2 (GeneID 11200) | 3 | 62.2 | active
CHEK2 (GeneID 11200) | 3 | 64.7 | active
PRMT8 (GeneID 56341) | 1 | 48.8 | active
PRMT8 (GeneID 56341) | 2 | 40.4 | active
PRMT8 (GeneID 56341) | 3 | 41.1 | active
MTREX (GeneID 23517) | 1 | 46 | active
MTREX (GeneID 23517) | 2 | 30.4 | active
MTREX (GeneID 23517) | 3 | 41 | active
SMYD3 (GeneID 64754) | 1 | 80.4 | inactive
SMYD3 (GeneID 64754) | 2 | 44.5 | active
SMYD3 (GeneID 64754) | 3 | 42.8 | active
FAM91A1 (GeneID 157769) | 1 | 68.9 | active
FAM91A1 (GeneID 157769) | 2 | 79.1 | active
FAM91A1 (GeneID 157769) | 3 | 64 | active
TLK1 (GeneID 9874) | 1 | 72 | active
TLK1 (GeneID 9874) | 1 | 78.3 | active
TLK1 (GeneID 9874) | 2 | 67.7 | active
TLK1 (GeneID 9874) | 2 | 51.9 | active
TLK1 (GeneID 9874) | 3 | 54.9 | active
TLK1 (GeneID 9874) | 3 | 69.3 | active
